Values from PubChem BioAssay AID1224828 (NIAID, 2016).

Test: 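Regulators linking TLR4 signalling to p65 nuclear translocation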 (primary screen)
System: mouse RAW264.7 G9 macrophage reporter cells (GFP-p65, Tnf promoter-mCherry)
Knock-down reagent: siRNA pool against mouse genes, 100 nM
Duration: 2 days siRNA transfection, then 40 min LPS before fixation
Treatment: LPS (Salmonella minnesota R595) at 10 ng/ml
Measured: 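Microscopy ratio of nuclear to perinuclear-ring GFP-p65 signal, scaled to the plate median; gene score is the average of two replicate robust z-scores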
Scale: p65 translocation robust z-score: higher = more nuclear NF-kappaB p65 after LPS than the plate median; nuclear/cytoplasmic p65 ratio: higher = more nuclear NF-kappaB p65
Call rule: 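Called active when z exceeds 3.3 or falls under -1.56 (median of Tlr4 controls), giving activity score of at least 50; no calls for control wells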
Meaning of the calls: active = hit (p65 shift raised or lowered); inactive = no clear change
The deposit covers about 17,000 reagents; shown is an unselected part. Of all reagents, 762 (4.5%) got an active call. 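Active calls include both raised and lowered p65 entry, mostly lowered; wells with fewer than 50 cells lack a z-score.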 The raw values are shown without normalisation. Entries without a mark were called inactive.

| Gene | p65 translocation robust z-score | nuclear/cytoplasmic p65 ratio, rep 1 | nuclear/cytoplasmic p65 ratio, rep 2 | low cell count flag |
| --- | --- | --- | --- | --- |
| Parg | 0.43 | 1.61 | 1.29 | enough cells to score |
| Psg19 | – | 1.32 | 1.11 | fewer than 50 cells per well; well left out of scoring |
| Axin2 | -0.83 | 1.48 | 1.5 | enough cells to score |
| Glipr1l2 | – | 1.48 | 1.21 | fewer than 50 cells per well; well left out of scoring |
| 5830427D03Rik (retired record) | 0.45 | 1.39 | 1.52 | enough cells to score |
| Stat2 | -1.33 | 1.36 | 1.36 | enough cells to score |
| Defb50 | -1.19 | 1.55 | 1.35 | enough cells to score |
| Ube2e2 | – | 1.44 | 1.47 | fewer than 50 cells per well; well left out of scoring |
| Tmem59l | – | 1.05 | 1.28 | fewer than 50 cells per well; well left out of scoring |
| Myl1 | -1.81 (active) | 1.58 | 1.24 | enough cells to score |
| Or10z1 | -0.12 | 1.47 | 1.22 | enough cells to score |
| Dcxr | -0.58 | 1.38 | 1.32 | enough cells to score |
| Myom2 | 0.48 | 1.79 | 1.72 | enough cells to score |
| Bnipl | 1.25 | 1.45 | 1.7 | enough cells to score |
| Or5ae1 | -1.39 | 1.4 | 1.5 | enough cells to score |
| Nr1h2 | 0.15 | 1.15 | 1.42 | enough cells to score |
| Calml4 | 0.34 | 1.59 | 1.9 | enough cells to score |
| Itm2a | -0.65 | 1.42 | 1.38 | enough cells to score |
| Ovch2 | – | 1.55 | 1.31 | fewer than 50 cells per well; well left out of scoring |
| Oc90 | 0.77 | 1.83 | 1.65 | enough cells to score |
| Mapkapk2 | -0.77 | 1.67 | 1.28 | enough cells to score |
| Abca2 | 0.66 | 1.66 | 1.83 | enough cells to score |
| Ankrd33 | – | 1.27 | 1.39 | fewer than 50 cells per well; well left out of scoring |
| Kifc3 | 1.29 | 1.62 | 1.57 | enough cells to score |
| Mtmr3 | -2.15 (active) | 1.19 | 1.08 | enough cells to score |
| Maged2 | 1 | 1.81 | 1.75 | enough cells to score |
| Gjc2 | -0.98 | 1.21 | 1.33 | enough cells to score |
| Dync2li1 | – | 1.23 | 1.27 | fewer than 50 cells per well; well left out of scoring |
| Gpr21 | 1.56 | 1.63 | 1.59 | enough cells to score |
| Ptges3l | – | 1.68 | 1.44 | fewer than 50 cells per well; well left out of scoring |
| Hspb7 | -0.64 | 1.32 | 1.32 | enough cells to score |
| Il25 | -0.64 | 1.43 | 1.37 | enough cells to score |
| Grep1 | 0.99 | 1.67 | 1.59 | enough cells to score |
| Mcub | – | 1.25 | 1.55 | fewer than 50 cells per well; well left out of scoring |
| Ints6 | 0.56 | 1.58 | 1.43 | enough cells to score |
| Crebl2 | -1.35 | 1.41 | 1.41 | enough cells to score |
| Arhgef3 | -0.27 | 1.62 | 1.53 | enough cells to score |
| Prep | -0.45 | 1.37 | 1.12 | enough cells to score |
| Evx2 | – | 1.24 | 1.95 | fewer than 50 cells per well; well left out of scoring |
| Wdr45b | 0.05 | 1.49 | 1.51 | enough cells to score |
| Mb | 1.33 | 1.84 | 1.81 | enough cells to score |
| Epha4 | 0.21 | 1.72 | 1.51 | enough cells to score |
| Tmem131l | -1.25 | 1.34 | 1.42 | enough cells to score |
| Ptn | -0.23 | 1.46 | 1.38 | enough cells to score |
| Mkx | – | 1.24 | 1.46 | fewer than 50 cells per well; well left out of scoring |
| Nphp4 | 0.01 | 1.46 | 1.3 | enough cells to score |
| Dennd11 | -1.11 | 1.32 | 1.22 | enough cells to score |
| Amn | 0.09 | 1.64 | 1.63 | enough cells to score |
| Prss40 | – | 1.44 | 1.12 | fewer than 50 cells per well; well left out of scoring |
| Fech | – | 1.35 | 1.28 | fewer than 50 cells per well; well left out of scoring |
| Vmn1r227 | – | 1.09 | 1.02 | fewer than 50 cells per well; well left out of scoring |
| Tmem87a | 0.94 | 1.59 | 1.56 | enough cells to score |
| Ptpra | 1 | 1.7 | 1.48 | enough cells to score |
| Or6c207 | 0.42 | 1.41 | 1.32 | enough cells to score |
| Prpf38b | – | 1.46 | 1.22 | fewer than 50 cells per well; well left out of scoring |
| Fem1a | 2.33 | 1.65 | 1.79 | enough cells to score |
| Chuk | -1.75 (active) | 1.27 | 1.16 | enough cells to score |
| Plce1 | 1.11 | 1.53 | 1.33 | enough cells to score |
| P2ry12 | -1.54 | 1.29 | 1.23 | enough cells to score |

Quoted from the entries so far, 7 entries:
| Gene | p65 translocation robust z-score | nuclear/cytoplasmic p65 ratio, rep 1 | nuclear/cytoplasmic p65 ratio, rep 2 | low cell count flag |
| --- | --- | --- | --- | --- |
| Wdr45b | 0.05 | 1.49 | 1.51 | enough cells to score |
| Mb | 1.33 | 1.84 | 1.81 | enough cells to score |
| Epha4 | 0.21 | 1.72 | 1.51 | enough cells to score |
| Tmem131l | -1.25 | 1.34 | 1.42 | enough cells to score |
| Ptn | -0.23 | 1.46 | 1.38 | enough cells to score |
| Mkx | – | 1.24 | 1.46 | fewer than 50 cells per well; well left out of scoring |
| Nphp4 | 0.01 | 1.46 | 1.3 | enough cells to score |
